# The exact form of at least one protein or probe is not confirmed. Weaker means in comparison with the reference protein, sequence or condition of that experiment. Protein sequences can lack the tags named with them.
# Tests used:
# [1] = target: T1, C3ORF37/HMCES full-length (UniProt Q96FZ2); assay: filter binding; conditions: weak binding
# T1 sequence (looked up, limits assumed): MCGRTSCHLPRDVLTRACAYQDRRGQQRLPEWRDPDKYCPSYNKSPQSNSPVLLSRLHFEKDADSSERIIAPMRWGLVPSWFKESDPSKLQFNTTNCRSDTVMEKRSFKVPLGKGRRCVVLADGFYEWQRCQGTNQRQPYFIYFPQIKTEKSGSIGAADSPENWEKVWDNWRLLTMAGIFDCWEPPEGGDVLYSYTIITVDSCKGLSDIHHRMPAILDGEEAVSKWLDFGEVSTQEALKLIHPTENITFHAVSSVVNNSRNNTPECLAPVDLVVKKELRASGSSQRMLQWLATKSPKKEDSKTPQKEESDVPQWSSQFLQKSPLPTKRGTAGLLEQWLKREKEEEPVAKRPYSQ
# [2] = target: T2, WDR76 (FLAG-HA, HEK293 purified) (Homo sapiens) (UniProt Q9H967); assay: EMSA; conditions: 50 nM DNA; 5-methylcytosine at central CpG C8 of both strands
# T2 sequence (looked up, limits assumed): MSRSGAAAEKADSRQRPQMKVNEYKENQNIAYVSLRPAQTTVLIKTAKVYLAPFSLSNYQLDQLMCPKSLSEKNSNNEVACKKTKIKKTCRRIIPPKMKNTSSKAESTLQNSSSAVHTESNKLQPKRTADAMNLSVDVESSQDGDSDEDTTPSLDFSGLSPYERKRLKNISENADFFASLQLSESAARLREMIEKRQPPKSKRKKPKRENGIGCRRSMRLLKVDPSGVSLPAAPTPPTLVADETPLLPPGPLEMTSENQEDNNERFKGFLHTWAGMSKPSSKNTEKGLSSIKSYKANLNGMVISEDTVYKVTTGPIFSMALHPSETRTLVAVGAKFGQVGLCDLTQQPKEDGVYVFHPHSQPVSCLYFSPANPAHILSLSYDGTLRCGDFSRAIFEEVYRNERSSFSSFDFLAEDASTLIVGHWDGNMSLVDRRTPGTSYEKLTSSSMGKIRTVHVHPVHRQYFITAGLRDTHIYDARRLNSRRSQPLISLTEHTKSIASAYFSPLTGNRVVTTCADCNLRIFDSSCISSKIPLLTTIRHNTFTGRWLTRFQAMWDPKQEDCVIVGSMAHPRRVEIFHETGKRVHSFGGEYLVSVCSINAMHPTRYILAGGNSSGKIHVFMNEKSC
Sequence,binding result ([1]; 5-hydroxymethylcytosine at central CpG C8 of both strands),binding result [2],binding result ([1]; 5-methylcytosine at central CpG C8 of both strands)
GCGGCTGCGTGGGTCC (double strand) [hmC/hmC duplex],binds more weakly,–,–
GCGGCTGCGTGGGTCC (double strand) [mC/mC duplex],–,binds more weakly,binds more weakly
